Values quoted from earlier work, collected in patent US20180221332A1, “Flash-Melt Cannabinoid Formulations” (CannTab Therapeutics Limited, priority 2017, published 2018).

CCCCCc1cc(O)c2c(c1)OC(C)(C)[C@@H]1CCC(C)=C[C@@H]21 [Dronabinol, (−)-trans-Δ^9-tetrahydrocannabinol]
solubility in water: insoluble in water
